Consider three compounds from patent US12077557B2, “Puromycin-based probes and methods of use thereof” (The Regents of the University of California, priority 2018, dated 2024).

Structures are written as SMILES.

Data set [1] in a line: LC-MS study of reaction of probe with H2O2 and other ROS. As to conditions: for product of reaction with H2O2 (LC-MS): probe 0.3 mM, H2O2 0.1 mM. On the procedure:
(§1) MilliQ water was used in all experiments unless otherwise stated. Reaction kinetics of the probes with species of interest and other substrates were investigated by LC-MS (Agilent Technology 6130, Quadrupole LC/MS) coupled with photodiode array for detection (X=275 nm). Confocal microscopy images were recorded on a Zeiss laser scanning microscope 710 with a 40× water-immersion objective lens using Zen 2009 software (Carl Zeiss).
(§2) Peroxymycin-1 and Ctrl-Peroxymycin-1 (0.3 mM), respectively, were dissolved in phosphate buffer (20 mM, pH 7.4)-methanol solution mixture (2:1, v/v) with 3 vol % DMSO and allowed to stand at room temperature. At predetermined time intervals, an aliquot of the solution mixture was taken for LC-MS analysis. Separation was achieved by gradient elution from 5-100% MeOH in water (constant 0.1 vol % formic acid) over 8 min, isocratic with 100% MeOH from 8 to 12 min and returned to initial conditions and equilibrated for 3 minutes. The LC chromatograms were recorded by monitoring absorption at 275 nm.
For the study of the reaction with H2O2, Peroxymycin-1 and Ctrl-Peroxymycin-1 (0.3 mm), respectively, were dissolved in phosphate buffer (20 mM, pH 7.4)-methanol solution mixture (2:1, v/v) with 3 vol % DMSO. H2O2 was then added to the solution mixture (final concentration=0.1 mM), and the reaction mixture was allowed to stand at room temperature. At predetermined time intervals, an aliquot of the solution mixture will be taken for LC-MS analysis as described above.
For other ROS, they were generated as described previously (Carroll, et al. J. Am. Chem. Soc. 2014, 136, 14742), and then added to the solution of peroxymycin with final concentration of 0.1 mM, except that the final concentration of peroxynitrite was 0.05 mM which is its physiologically relevant concentration. An aliquot of the solution was then taken for LC-MS analysis as described above.

Data set [2] in a line: LC-MS study of reaction of probe with H2S and other substrates. On the procedure: as §1, §2

For `COc1ccc(CC(NC(=O)OCCc2ccc(B3OC(C)(C)C(C)(C)O3)cc2)C(=O)NC2C(CO)OC(n3cnc4c(N(C)C)ncnc43)C2O)cc1` (centres unmarked) [Ctrl-Peroxymycin-1], the “product of reaction with H2O2 (LC-MS)” value in data set [1] is on record as “without self-immolative cleavage to produce puromycin”.
In the case of `COc1ccc(CC(NC(=O)OCc2ccc(B3OC(C)(C)C(C)(C)O3)cc2)C(=O)NC2C(CO)OC(n3cnc4c(N(C)C)ncnc43)C2O)cc1` (centres unmarked) [Peroxymycin-1], the “production of puromycin with peroxynitrite relative to H2O2” value in data set [1] (peroxynitrite at 50 μM) is reported as “an order of magnitude less”. Moreover, in data set [1], the “product of reaction with H2O2 (LC-MS)” value is listed as “produces puromycin”.
For the compound `COc1ccc(CC(NC(=O)OCc2ccc(N=[N+]=[N-])cc2)C(=O)NC2C(CO)OC(n3cnc4c(N(C)C)ncnc43)C2O)cc1` (centres unmarked) [H2S-Puro-1], the “release of free puromycin in the presence of cysteine or GSH” value in data set [2] (cysteine or GSH 5 mM, LC-MS) is recorded as “no significant release of free puromycin”. In data set [2] (physiologically relevant concentrations of H2S, GSH, Cys, Hcys, reaction 1 h), the “puromycin formed with H2S compared to other substrates” value is “at least 5.0 fold”.
